From patent US10098881B2, “Compounds” (AUTIFONY THERAPEUTICS LIMITED, priority 2011, dated 2018)
At least one structure is not confirmed: it was looked up by name or label, or the drawing left a doubt.

How the values were obtained:
Male CD-1 mice = experiment: Biological Example 2: psychostimulant (amphetamine)-induced hyperactivity in mice; conditions: mouse, conclusion of the study
[1] = molecular target: T1, human Kv3.2 channels (hKv3.2) (Homo sapiens, UniProt Q96PR1); experiment: Biological Example 1: hKv3.2 whole-cell currents, IonWorks Quattro planar array electrophysiology; format: cell-based; conditions: hKv3.2, -15 mV voltage step
T1 construct: expressed in transfected cells
T1 sequence (Q96PR1 1-638): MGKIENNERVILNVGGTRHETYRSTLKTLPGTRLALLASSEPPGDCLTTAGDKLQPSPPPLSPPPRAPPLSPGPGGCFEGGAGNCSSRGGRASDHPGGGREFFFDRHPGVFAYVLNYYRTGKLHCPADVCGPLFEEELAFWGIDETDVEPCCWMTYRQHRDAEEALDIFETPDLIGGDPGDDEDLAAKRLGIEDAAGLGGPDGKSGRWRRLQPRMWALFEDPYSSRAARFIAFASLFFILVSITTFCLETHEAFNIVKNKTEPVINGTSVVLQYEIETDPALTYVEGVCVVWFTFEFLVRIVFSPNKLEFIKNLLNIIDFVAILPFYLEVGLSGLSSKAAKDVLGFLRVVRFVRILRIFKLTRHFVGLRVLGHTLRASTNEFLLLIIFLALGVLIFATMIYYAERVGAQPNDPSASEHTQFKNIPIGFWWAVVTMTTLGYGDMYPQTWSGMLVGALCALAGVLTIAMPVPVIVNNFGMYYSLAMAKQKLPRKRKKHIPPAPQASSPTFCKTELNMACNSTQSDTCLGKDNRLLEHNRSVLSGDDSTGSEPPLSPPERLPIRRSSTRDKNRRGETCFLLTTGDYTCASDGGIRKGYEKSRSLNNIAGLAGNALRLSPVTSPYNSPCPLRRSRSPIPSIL
Text: The ability of the compounds of the invention to modulate the voltage-gated potassium channel subtypes Kv3.2 or Kv3.1 may be determined using the following assay. Analogous methods may be used to investigate the ability of the compounds of the invention to modulate other channel subtypes, including Kv3.3 and Kv3.4.
To assess compound effects on human Kv3.2 channels (hKv3.2), a stable cell line expressing hKv3.2 was created by transfecting Chinese Hamster Ovary (CHO)-K1 cells with a pClH5-hKv3.2 vector. Cells were cultured in DMEM/F12 medium supplemented by 10% Foetal Bovine Serum, lx non-essential amino acids (Invitrogen) and 500 ug/ml of Hygromycin-B (Invitrogen). Cells were grown and maintained at 37° C. in a humidified environment containing 5% CO2 in air.
The day of the experiment, cells were removed from the incubator and the culture medium removed. […]
Experiments were conducted at room temperature using IonWorks Quattro™ planar array electrophysiology technology (Molecular Devices Corp.) with PatchPlate™ PPC. […] Planar electrode hole resistances (Rp) were determined by applying a 10 mV voltage step across each well. […] Test pulses protocol may be performed in the absence (pre-read) and presence (post-read) of the test compound. Pre- and post-reads may be separated by the compound addition followed by a 3 minute incubation. […]

Row | SMILES | hyperactivity induced by the psychostimulant amphetamine (Male CD-1 mice) | Tauact mean ([1]; compound 1.6 μM (concentration giving ~0.3 nA current at end of pulse)) | Tauact mean ([1]; compound 0.4 μM (concentration giving ~0.3 nA current at end of pulse))
1 | Cc1ccc(Oc2ncc(N3C(=O)NC(C)(C)C3=O)cn2)c2c1OCC21CC1 [Example 4, 5,5-dimethyl-3-[2-(7-methylspiro[2H-benzofuran-3,1′-cyclopropane]-4-yl)oxypyrimidin-5-yl]imidazolidine-2,4-dione] | able to prevent hyperactivity | 13.1 ms | –
2 | CC1(C)NC(=O)N(c2ccc(Oc3cccc4c3C3(CC3)CO4)nc2)C1=O [RE10, 5,5-dimethyl-3-[6-(spiro[1-benzofuran-3,1′-cyclopropan]-4-yloxy)-3-pyridinyl]-2,4-imidazolidinedione, reference compound] | – | – | 19.3 ms
